According to PubChem BioAssay AID540276 (National Center for Advancing Translational Sciences (NCATS), 2011):
“And” between values parts separate entries of the source, which are not always exact repeats. Equal entries are not always repeated. Hit rate of the full screen: of about 300,000 compounds, about 5,400 (1.8%) were called active. Inconclusive results, whose numbers are uncertain, are shown with a selection of clear calls. Calls come from the whole dose curve; tested in HEK293 cells. Potencies of inconclusive entries are doubtful fits and often do not repeat.
Potency is the fitted concentration of half-maximal effect.

Test: qHTS for inhibitors of binding or entry into cells for Marburg Virus
Conditions: Marburg virus pseudotyped entry inhibition, cell reporter; series mostly up to 37.8 µM
With `O=C(CN1CCC(n2nnc3cc(F)ccc32)CC1)N1CCCc2ccccc21` the Potency was inconclusive: 8.91 µM [inhibitor, partial curve, poor fit]. For `Cc1ccc2c(c1)nnn2C1CCN(CC(=O)N2c3ccccc3CC2C)CC1` (configuration not stated), the Potency was “inactive”. With `O=C(O)CCCC1(C(=O)O)CCCC1` the Potency was inconclusive: 35.5 µM [inhibitor, partial curve, poor fit]. With `O=C(CN1CCCc2ccccc21)NC(=O)NCc1ccco1` the Potency was inconclusive: 18.3 µM [inhibitor, single point]. In the case of `COc1ccc(-c2nnc(SCC(=O)N3CCCc4ccccc43)o2)cc1OC`, the Potency is reported as inconclusive: 2.82 µM [inhibitor, partial curve, poor fit]. In the case of `COc1cccc(-c2ccc(SCC(=O)NC3CCCCC3)nn2)c1`, the Potency is reported as “inactive”. In the case of `CC(=O)c1ccc(C(=O)N2CCc3c([nH]c4ccccc34)C2c2cccc(C)n2)s1` (configuration not stated), the Potency is reported as inconclusive: 11.2 µM [inhibitor, partial curve, poor fit]. In the case of `Cc1ccc(SCc2[nH]nc3c2C2(C(=O)Nc4ccc([N+](=O)[O-])cc42)C(C#N)=C(N)O3)cc1` (configuration not stated), the Potency is reported as “inactive”. In the case of `O=C(c1ccco1)N1CCN(C(=O)C2CC(c3ccc(Cl)c(Cl)c3)=NO2)CC1` (configuration not stated), the Potency is reported as inconclusive: 0.112 µM [inhibitor, full curve, poor fit]. In the case of `N/C(=N\OC(=O)COc1ccccc1Cl)c1ccccn1`, the Potency is reported as inconclusive: 14.6 µM [inhibitor, partial curve, poor fit]. With `CC(C)NC(=O)CSc1nnc(-c2ccc(S(=O)(=O)N3CCCC3)cc2)n1CC1CCCO1` (configuration not stated) the Potency was “inactive”. With `CCN(CC)S(=O)(=O)c1ccc(N2CCc3cc(OC)c(OC)cc3C2)nc1` the Potency was inconclusive: 17.8 µM [inhibitor, partial curve, poor fit]. In the case of `CCOC(=O)/C(C#N)=C\c1cc(OC)c(OC)cc1[N+](=O)[O-]`, the Potency is reported as inconclusive: 35.5 µM [activator, single point]. In the case of `Cc1nc(Nc2ccc(S(=O)(=O)N3CCCCC3C)cc2)c2nnn(Cc3ccccc3)c2n1` (configuration not stated), the Potency is reported as inconclusive: 0.794 µM [inhibitor, full curve, poor fit]. With `COc1cc(Br)c(C(C)NC(=O)c2cccc(Br)c2)cc1OC` (configuration not stated) the Potency was inconclusive: 18.3 µM [inhibitor, single point]. For `CCNC(=O)NC(=O)COC(=O)c1ccccc1SCC(=O)NC(=O)NCC`, the Potency was active: 14.1 µM. With `CCOC(=O)C(NC(C)=O)C(OC(C)=O)c1cccc(N(CCCl)CCCl)c1` (configuration not stated) the Potency was inconclusive: 3.98 µM [inhibitor, full curve]. For `COc1ccc(OC)c(NC2=C(Cl)C(=O)N(Cc3ccccc3)C2=O)c1`, the Potency was inconclusive: 1 µM [inhibitor, single point]. In the case of `COC(=O)CCCC1=CC2=CC(=O)C(C)(OC(=O)c3cccs3)C(=O)C2=CN1C1CC1` (configuration not stated), the Potency is reported as inconclusive: 1.19 µM [inhibitor, single point]. With `O=C(CSC1=NS(=O)(=O)c2cc(Cl)ccc2N1)c1ccc(Cl)cc1` the Potency was “inactive”. With `O=C(CSc1nn(-c2ccc(Cl)cc2)c(=S)s1)N1CCN(C(=O)c2ccco2)CC1` the Potency was “inactive”. In the case of `Cc1ccc(S(=O)(=O)NCC(=O)OCCOc2ccc(Br)cc2)cc1`, the Potency is reported as inconclusive: 14.1 µM [inhibitor, partial curve, poor fit]. In the case of `Cn1c(Oc2ccccc2NCc2cc(Br)ccc2O)cc(=O)n(C)c1=O`, the Potency is reported as inconclusive: 35.5 µM [inhibitor, single point]. In the case of `COc1ccc(-c2noc(=O)n2Cc2ccccc2Cl)cc1`, the Potency is reported as inconclusive: 35.5 µM [inhibitor, single point]. In the case of `O=S(=O)(NCCSc1nnc(-c2ccco2)n1-c1ccccc1)c1ccccc1`, the Potency is reported as inconclusive: 35.5 µM [inhibitor, single point]. In the case of `CCCN1Cc2cccc(C(=O)NC(C)c3cccs3)c2C1=O` (configuration not stated), the Potency is reported as inconclusive: 12.6 µM [activator, single point]. In the case of `O=C(CCNS(=O)(=O)c1ccc(OC(F)(F)F)cc1)N1CCN(S(=O)(=O)c2cccc(F)c2)CC1`, the Potency is reported as inconclusive: 6.31 µM [inhibitor, single point]. With `CC1(C)CC2CC(C)(CN2S(=O)(=O)c2ccc(C(=O)Nc3cccc(S(=O)(=O)N4CCOCC4)c3)cc2)C1` (configuration not stated) the Potency was active: 5.17 µM. In the case of `c1ccc(-c2nnc(CN3CCN(c4ccccc4)CC3)o2)cc1`, the Potency is reported as “inactive”. For `O=C(Nc1nccs1)c1ncc(Cl)c(Cl)c1Cl`, the Potency was “inactive”. With `O=C(O)CN=C1CC(c2ccccc2)CC(=O)/C1=C(/O)CCCN1C(=O)c2ccccc2C1=O` (configuration not stated) the Potency was inconclusive: 14.1 µM [activator, partial curve, poor fit]. For `O=C(CN1C(=O)NC2(CCCc3ccccc32)C1=O)Nc1cccc(S(=O)(=O)N2CCCCC2)c1` (configuration not stated), the Potency was inconclusive: 0.316 µM [inhibitor, partial curve, poor fit]. With `COCCOC(=O)C1=C(C)NC2=C(C(=O)CC(c3cccs3)C2)C1c1ccsc1` (configuration not stated) the Potency was inconclusive: 17.8 µM [inhibitor, single point]. With `Cc1ccc(-c2[nH]c(-c3ccccc3)nc2SCC(=O)NCC2CCCO2)cc1` (configuration not stated) the Potency was inconclusive: 8.91 µM [inhibitor, partial curve, poor fit]. With `CN1C(=O)N(C)C(=O)C2(Cc3cc([N+](=O)[O-])ccc3N(C)C2c2ccccc2)C1=O` (configuration not stated) the Potency was inconclusive: 5.62 µM [activator, single point]. For `CCNc1nc(NCC)nc(NC(N)=S)n1`, the Potency was inconclusive: 1.26 µM [activator, single point]. With `Cn1sc(NC(=O)c2ccc(Cl)cc2)nc1=O` the Potency was “inactive”. For `Cc1nc(C)c(C(=O)NN=Cc2ccc(N(CCCl)CCCl)cc2)s1`, the Potency was inconclusive: 7.08 µM [inhibitor, partial curve, poor fit]. With `Cc1[nH]c2c(C(F)(F)F)cccc2c1CCN` the Potency was inconclusive: 11.2 µM [inhibitor, single point]. For `O=C(/C=C/c1ccc([N+](=O)[O-])cc1)Nc1cccc(S(=O)(=O)NC2=NCCCCC2)c1`, the Potency was inconclusive: 35.5 µM [inhibitor, single point]. With `CCOc1ccc(C2=Nc3ccccc3C(c3ccc(N4CCOCC4)cc3)=NN2)cc1` the Potency was inconclusive: 1.16 µM [activator, partial curve, poor fit]. With `Cc1cccc(Nc2nc(-c3ccc(F)cc3)cs2)n1` the Potency was inconclusive: 25.1 µM [inhibitor, single point]. For `CCN(CCNC(=O)[C@H]1C=C(OC)C(=O)C[C@H](c2ccccc2)[C@@H]1C)C(C)=O`, the Potency was “inactive”. With `CN(C)[C@@H]1C(=O)C(C(N)=O)=C(O)[C@@]2(O)C(=O)C3=C(O)c4c(O)cccc4[C@@](C)(O)[C@H]3[C@H](O)[C@@H]12` the Potency was inconclusive: 12.5 µM [activator, partial curve, poor fit] and inconclusive: 1.16 µM [inhibitor, partial curve, poor fit]. For `CCOc1ccc(C(=O)Nc2ccc3c(c2)OCCO3)cc1OC`, the Potency was inconclusive: 2.59 µM [activator, full curve]. For `NS(=O)(=O)c1ccc(NC(=O)c2ccc3nccnc3c2)cc1`, the Potency was “inactive”. With `COc1ccc(-n2nccc2-c2nn(-c3cccc(OC)c3)c(=O)n(C)c2=O)cc1` the Potency was inconclusive: 35.5 µM [activator, partial curve, poor fit]. With `CC(C)(C)n1ncc2c(=O)n(CC(=O)NC3CCCCC3)cnc21` the Potency was inconclusive: 0.501 µM [activator, partial curve, poor fit]. With `O=C(/C=C/c1ccccc1)OCC(=O)N1CCN(c2ccccc2)CC1` the Potency was “inactive”. With `CCCCc1ccc(NC(=O)CSc2nc3ccccc3nc2N2CCOCC2)cc1` the Potency was inconclusive: 35.5 µM [inhibitor, single point]. For `Cn1c(Cc2ccccc2)nnc1SCc1ccc(C(=O)O)cc1`, the Potency was inconclusive: 35.5 µM [activator, single point]. In the case of `CCc1ccc(NC(=O)CSc2nc3ccsc3c(=O)n2CCCCCC(=O)O)cc1`, the Potency is reported as “inactive”. In the case of `CCCCOCCCn1c(N)c(C(=O)O[C@@H](C)COC)c2nc3ccccc3nc21`, the Potency is reported as inconclusive: 25.1 µM [inhibitor, partial curve, poor fit]. In the case of `CCN1CCN(C(=O)c2ccccc2Nc2ccc(SC(F)F)cc2)CC1`, the Potency is reported as inconclusive: 7.08 µM [inhibitor, partial curve, poor fit]. For `O=C(NC1CCCc2ccccc21)c1cccc(F)c1` (configuration not stated), the Potency was inconclusive: 10 µM [inhibitor, partial curve, poor fit]. For `COc1cc(C2C3=C(CC(C)(C)CC3=O)OC3=C2C(=O)CC(C)(C)C3)cc([N+](=O)[O-])c1O`, the Potency was “inactive”. In the case of `CC(C)NC(=O)c1ccccc1NC(=O)C(C)Oc1ccccc1` (configuration not stated), the Potency is reported as inconclusive: 6.31 µM [inhibitor, single point]. In the case of `CSc1ccc(Cl)c(C(=O)N(C)CC(=O)Nc2ccc(N3CCOCC3)cc2)c1`, the Potency is reported as inconclusive: 5.62 µM [activator, single point]. In the case of `CCN1CCN(C(=O)c2ccc3c(=O)n(Cc4ccccc4OC)c(=S)[nH]c3c2)CC1`, the Potency is reported as “inactive”. For `COc1ccc(CNC(=O)c2cc3c(=O)n4ccccc4nc3n(Cc3cccnc3)c2=N)cc1`, the Potency was inconclusive: 10.3 µM [inhibitor, partial curve, poor fit]. In the case of `Nc1ccccc1Sc1ccccc1[N+](=O)[O-]`, the Potency is reported as inconclusive: 5.62 µM [inhibitor, single point]. With `O=C(/C=C/c1ccc(F)cc1)NC(=S)Nc1ccccc1O` the Potency was inconclusive: 1.12 µM [activator, full curve, poor fit].
